{"sequences": {"note": "Chains of the proteins cited; added tags and fusions are not shown.", "UniProt Q0JBA9, entry or part of it": "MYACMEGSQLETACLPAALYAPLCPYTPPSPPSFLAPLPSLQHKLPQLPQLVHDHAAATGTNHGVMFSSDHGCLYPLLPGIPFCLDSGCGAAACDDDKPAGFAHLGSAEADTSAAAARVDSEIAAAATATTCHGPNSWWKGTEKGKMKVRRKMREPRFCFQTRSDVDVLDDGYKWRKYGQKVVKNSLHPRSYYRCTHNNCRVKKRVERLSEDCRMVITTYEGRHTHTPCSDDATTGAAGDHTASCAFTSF"}, "source": "paper PMC7819943", "about": "“Rice protein-binding microarrays: a tool to detect cis-acting elements near promoter regions in rice”", "note": "The list shows a part of the results."}
{"target": "OsWRKY34 (Oryza sativa, UniProt Q0JBA9 1-250)", "test": "protein-binding microarray (RPBM); PBS, 2% BSA, 51.3 ng/ul salmon testes DNA, 50 uM zinc acetate, 200 nM TF, 25 C, 1 h; high values mean tight binding", "conditions": "protein: recombinant; tags: N-terminal polyhistidine and DsRed monomer fusion (pET32a); label: CyDye5-dUTP incorporated in the synthesized complementary strand; 3' TTTTT single-stranded linker to array surface; dsDNA, one strand shown", "procedure,_shortened": "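The binding signal is fluorescence intensity per feature, in arbitrary units, read on an Axon 4000B scanner. Polyhistidine- and DsRed-tagged transcription factors (N-terminal fusions) from E. coli BL21-CodonPlus were purified on Ni–NTA and applied at 200 nM for 1 h at 25 °C to a double-stranded, BSA-blocked custom Agilent array in buffer with 50 µM zinc acetate.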"}
{"sequence": "CCTGTTAAAAATCACTCGCATATCTAATTATTTGGCGGATCGGAGTCACCTAGTGCAG", "binding signal": "8760 fluorescence intensity (a.u.)"}
{"sequence": "TGTGCTTTACTTGTGCTATCCTGATGTGATGACGCCATTTCGGAGTCACCTAGTGCAG", "binding signal": "8670 fluorescence intensity (a.u.)"}
{"sequence": "GATTTTTTTTCCCTTTCAATACCGGTCCCTTTGTCAGTTACGGAGTCACCTAGTGCAG", "binding signal": "12200 fluorescence intensity (a.u.)"}
{"sequence": "GCAACTGCTGGCCATCGGCCCATATGCATGCAGCCCACACCGGAGTCACCTAGTGCAG", "binding signal": "8760 fluorescence intensity (a.u.)"}
{"sequence": "TTCATTCGCTCGCGCCGTCTCCGAAACCGAATCCATTTCCCGGAGTCACCTAGTGCAG", "binding signal": "8030 fluorescence intensity (a.u.)"}
{"sequence": "TGGCAAAGAATTTGTATGCTGCTCTGATTGCTCTGACCCACGGAGTCACCTAGTGCAG", "binding signal": "8680 fluorescence intensity (a.u.)"}
{"sequence": "AATCAGACTGCGCATCGCATTATACTCGGACGACTTACAACGGAGTCACCTAGTGCAG", "binding signal": "8180 fluorescence intensity (a.u.)"}
{"sequence": "TGCTCCGACCACTGCCCACCCCGCTCCACCGGCTAGAGAGCGGAGTCACCTAGTGCAG", "binding signal": "9120 fluorescence intensity (a.u.)"}
{"sequence": "TTGTTACCTAGACTCTCGTTGTAATATACAGATTTATGTCCGGAGTCACCTAGTGCAG", "binding signal": "8790 fluorescence intensity (a.u.)"}
{"sequence": "GCTCTTTTCATAAAAATCTACTACTATCATATTTTTTAATCGGAGTCACCTAGTGCAG", "binding signal": "8030 fluorescence intensity (a.u.)"}
{"sequence": "TTTTTCACGGGGATGGGTCGGGGATTGTTGACTGATAAAGCGGAGTCACCTAGTGCAG", "binding signal": "21700 fluorescence intensity (a.u.)"}
{"sequence": "TTATACTCATGGTGAAAGTCCTATGTTTTGATCTATTCCTCGGAGTCACCTAGTGCAG", "binding signal": "9400 fluorescence intensity (a.u.)"}
{"sequence": "ACCCAACTGTTCCGCGTATTGCTTTCTTCTTCTCCAAGAACGGAGTCACCTAGTGCAG", "binding signal": "14700 fluorescence intensity (a.u.)"}
{"sequence": "CCACGATCACATTCACCTCCCATCCCACGACGTTGCTCTCCGGAGTCACCTAGTGCAG", "binding signal": "8850 fluorescence intensity (a.u.)"}
{"sequence": "CAGTACGATCGCAATCGATTCTTCCATCATTATAGATACTCGGAGTCACCTAGTGCAG", "binding signal": "8250 fluorescence intensity (a.u.)"}
{"sequence": "AGATTATTTGCCTGTCTCTAGTTTCCTGATGAACCTAATACGGAGTCACCTAGTGCAG", "binding signal": "8750 fluorescence intensity (a.u.)"}
{"sequence": "TTGCTGGAGCTTATTGGTTTCTTAGCCAGCGTTTCTAGTTCGGAGTCACCTAGTGCAG", "binding signal": "8660 fluorescence intensity (a.u.)"}
{"sequence": "CTCTGTAGTTTATTTCGTAATAACAACTTTACTTTATTTTCGGAGTCACCTAGTGCAG", "binding signal": "8910 fluorescence intensity (a.u.)"}
{"sequence": "TTATTTATTTCCAACTCAAGTTGCGGCCCATGTTAGCATGCGGAGTCACCTAGTGCAG", "binding signal": "8610 fluorescence intensity (a.u.)"}
{"sequence": "GTGGGTTTGATCTATTTGGTTCCTATCTTCCATCTTCTTCCGGAGTCACCTAGTGCAG", "binding signal": "10800 fluorescence intensity (a.u.)"}
{"sequence": "ACGCCGCCGCCGCCACCGCCACCGTCGCCGCCGCGCGTCCCGGAGTCACCTAGTGCAG", "binding signal": "8400 fluorescence intensity (a.u.)"}
{"sequence": "CGGGGTCGTCGAGTCGTGCAGGGGACTCGTTGCGGTTGGGCGGAGTCACCTAGTGCAG", "binding signal": "9260 fluorescence intensity (a.u.)"}
{"sequence": "GATCTTTCTGTTGACCAATTGTGCGAACAAAAGATATATTCGGAGTCACCTAGTGCAG", "binding signal": "8670 fluorescence intensity (a.u.)"}
{"sequence": "TTTATAGTTTGGTGATCTTCCATTTTAAATTTGTAGTTCTCGGAGTCACCTAGTGCAG", "binding signal": "8320 fluorescence intensity (a.u.)"}
{"sequence": "CACCCTAACAGGCACACCTACAAGATTACTTCCTCTGCTTCGGAGTCACCTAGTGCAG", "binding signal": "9030 fluorescence intensity (a.u.)"}
{"sequence": "TCCATTTGACGCAACCAAACTATTGTCTTTTCCGATATTCCGGAGTCACCTAGTGCAG", "binding signal": "8450 fluorescence intensity (a.u.)"}
{"sequence": "GGATTTTGAGTTTTTGTTTAGATTGTTTGACCACTCGTCTCGGAGTCACCTAGTGCAG", "binding signal": "8020 fluorescence intensity (a.u.)"}
{"sequence": "GAATCCGAATCCATACTTGCCCGCCCTGCCCTTTTTTCTTCGGAGTCACCTAGTGCAG", "binding signal": "12900 fluorescence intensity (a.u.)"}
{"sequence": "CCCCTTTCCTACGAACTCTCCTGTCGTTCTACGGTTCTCCCGGAGTCACCTAGTGCAG", "binding signal": "9500 fluorescence intensity (a.u.)"}
{"sequence": "CAACTTCTGAGCTCAACCTACATCCCATTCTCCGCTACTTCGGAGTCACCTAGTGCAG", "binding signal": "9160 fluorescence intensity (a.u.)"}
{"sequence": "AAAAACGAGCTAAAAAACATTCAGAGGGGTCTATTTGTCTCGGAGTCACCTAGTGCAG", "binding signal": "9890 fluorescence intensity (a.u.)"}
{"sequence": "TTTGGTTGTCACATCGGACGTCGAAAGGAGCTTTTGGACACGGAGTCACCTAGTGCAG", "binding signal": "8350 fluorescence intensity (a.u.)"}
{"sequence": "TATCCGACCTGCCTCATCTGCCAATCATTGCATTCCATATCGGAGTCACCTAGTGCAG", "binding signal": "10200 fluorescence intensity (a.u.)"}
{"sequence": "TCTCTCCCGTTCCATGTCCGCTCAACCTTGCTTCCATTCTCGGAGTCACCTAGTGCAG", "binding signal": "13400 fluorescence intensity (a.u.)"}
{"sequence": "AGAGAGAGAGAGCCACTTGCGTGCTGGCCTCTCTCACTGTCGGAGTCACCTAGTGCAG", "binding signal": "8780 fluorescence intensity (a.u.)"}
{"sequence": "CTATTGGGTTTGTTCGCTGCAGCTAAATTGCAGCTGCTGTCGGAGTCACCTAGTGCAG", "binding signal": "9830 fluorescence intensity (a.u.)"}
{"sequence": "TCAGTCGCTTCCTCTCTTTATTATCACAGATTCACAGTCCCGGAGTCACCTAGTGCAG", "binding signal": "8370 fluorescence intensity (a.u.)"}
{"sequence": "GTAGGAGGGTGGTTGGTTGTAGAATGGGAAGAAATTTGAACGGAGTCACCTAGTGCAG", "binding signal": "11100 fluorescence intensity (a.u.)"}
{"sequence": "GCGACGTTGACCTCTGCGAGCCCATGACATGGCACCATTACGGAGTCACCTAGTGCAG", "binding signal": "10400 fluorescence intensity (a.u.)"}
{"sequence": "TCCAATTTCAACTTCCAAGTTCTGTACTCCCAACCTTTTCCGGAGTCACCTAGTGCAG", "binding signal": "10300 fluorescence intensity (a.u.)"}
{"sequence": "TTTGCAACAAAAAGAAGTGCTTACGCTGTCACTTGCTCACCGGAGTCACCTAGTGCAG", "binding signal": "8120 fluorescence intensity (a.u.)"}
{"sequence": "CACGGCGGCGGATGGGGAAGGGGTGGGGCAGGACAGGAGGCGGAGTCACCTAGTGCAG", "binding signal": "14100 fluorescence intensity (a.u.)"}
